Source: publication PMC7337969
Results are given in words; binding and its absence hold for the method and conditions named. For part of these data: Binding can be weak; no strength is given. For part of these data: In cells and extracts the contact can be indirect. For part of these data: Sequences can lack the tags named with a protein. Each block holds one molecule with its values, some of them ahead of it.

Columns and labels:
[1] = target: T1, GFP-tagged full length MEIOK21 (mouse) (UniProt Q6DIA7); assay: co-IP; FLAG-tagged HSF2BP and GFP-tagged MEIOK21 (full length or truncations) co-transfected into HEK-293T cells, lysed after 48 hours, precipitated with GFP antibody; IgG as control
T1 sequence: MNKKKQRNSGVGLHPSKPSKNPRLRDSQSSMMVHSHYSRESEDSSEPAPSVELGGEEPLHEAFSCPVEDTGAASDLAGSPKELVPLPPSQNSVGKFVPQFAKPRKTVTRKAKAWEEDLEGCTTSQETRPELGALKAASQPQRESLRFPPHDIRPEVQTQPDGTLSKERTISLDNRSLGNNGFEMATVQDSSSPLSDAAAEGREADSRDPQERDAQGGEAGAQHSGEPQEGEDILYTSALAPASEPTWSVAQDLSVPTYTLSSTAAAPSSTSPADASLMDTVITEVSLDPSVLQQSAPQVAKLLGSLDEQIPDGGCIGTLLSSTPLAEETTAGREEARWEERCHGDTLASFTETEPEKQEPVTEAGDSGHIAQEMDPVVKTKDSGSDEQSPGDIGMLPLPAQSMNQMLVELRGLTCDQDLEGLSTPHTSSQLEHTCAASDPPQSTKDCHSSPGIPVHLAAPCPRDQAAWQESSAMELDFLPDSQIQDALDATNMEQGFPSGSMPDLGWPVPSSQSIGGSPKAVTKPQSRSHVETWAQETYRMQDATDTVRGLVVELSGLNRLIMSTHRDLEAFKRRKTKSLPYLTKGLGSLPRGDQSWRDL

[2] = target: HSF2BP C-terminal domain, yeast two-hybrid construct (mouse); assay: two-hybrid; MEIOK21 in pGADT7 as prey, partners in pGBKT7 as bait, co-transformed into Y2H gold strain; tested on SD-Leu-Trp-His plates
[3] = target: HSF2BP N-terminal domain, yeast two-hybrid construct (mouse); assay: as above

binding [1]: no binding
Molecule: FLAG-tagged HSF2BP C-terminal domain (mouse) (domain or fragment)

binding [2]: no binding
binding [3]: binds
B1: MEIOK21 (meiosis-specific 4930432K21RIK), yeast two-hybrid prey (protein, UniProt Q6DIA7-1 1-600)
chain: T1 sequence
